Experimental data: PubChem BioAssay AID1259405 (NCATS, 2018)

- Assay: 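Silenced genes that increase secreted GFP made by CHO cells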 (primary screen)
- Cells: Chinese hamster CHO-K1 ovary cells with stable secreted eGFP expression
- Knock-down reagent: single siRNA against mouse genes, 0.8 pmol siRNA per well (2 µl of 400 nM stock)
- Duration: 3 days
- Measured: 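Per-well intracellular GFP measured by laser scanning cytometry, plus viability from ATP luminescence, each relative to plate median of non-targeting control wells, in %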
- Reading the numbers: GFP, % of control: higher = more GFP per well, higher productivity; viability (ATP), % of control: higher = more viable cells (more ATP)
- Call rule: 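a knock-down is called active if GFP reaches 120% or more of non-targeting control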
The whole screen tested about 50,000 reagents; this is a random part of them. About 4,000 of them (8%) were called active. 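Mouse siRNA library applied to hamster cells; one well for each siRNA.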 Reagents against one gene are numbered here. Reagent sequences are not shown.

gene	reagent no.	GFP, % of control	viability (ATP), % of control	call
Slc6a19	1	61	38.7	inactive
Slc6a19	2	95	66.1	inactive
Slc6a19	3	97.5	98.5	inactive
Ctsc	1	108	125	inactive
Ctsc	2	115	71.7	inactive
Ctsc	3	63	42.6	inactive
Gpr33	1	73.8	53.4	inactive
Gpr33	2	60.1	82.1	inactive
Gpr33	3	77	82	inactive
H2ap	1	77	48.6	inactive
H2ap	2	83.5	78.6	inactive
H2ap	3	41.2	70.9	inactive
Garnl3	1	88.5	122	inactive
Garnl3	2	79.4	94.1	inactive
Garnl3	3	88.2	67.8	inactive
Rttn	1	144	86.2	active
Rttn	2	86.9	89.4	inactive
Rttn	3	79	69	inactive
Bok	1	62.2	75.6	inactive
Bok	2	105	92.5	inactive
Gm5617	1	79.9	43.5	inactive
Gm5617	2	142	96.9	active
Gm5617	3	120	64.1	inactive
Slc22a12	1	111	95.6	inactive
Slc22a12	2	144	124	active
Slc22a12	3	140	68.8	active
Zfp113	1	50.5	44.6	inactive
Zfp113	2	60.4	63.7	inactive
Zfp113	3	34.6	69	inactive
Cap2	1	87.4	72	inactive
Cap2	2	95.8	73.4	inactive
Cap2	3	108	113	inactive
Hcls1	1	73.4	77.3	inactive
Hcls1	2	61.2	73.8	inactive
Dync1i1	1	79.2	82.3	inactive
Dync1i1	2	99.8	110	inactive
Adamts7	1	67.9	82.6	inactive
Adamts7	2	99.1	76.3	inactive
Adamts7	3	87.9	56.5	inactive
Opn1sw	1	84.9	74.3	inactive
Opn1sw	2	44.7	64.3	inactive
Opn1sw	3	60.2	79.6	inactive
Hs2st1	1	76.1	44.5	inactive
Hs2st1	2	130	138	active
Hs2st1	3	85.8	100	inactive
Prr5	1	46.8	57.4	inactive
Prr5	2	63.7	84.3	inactive
Prr5	3	207	112	active
Ppdpf	1	87.8	102	inactive
Ppdpf	2	17.4	37.7	inactive
Ppdpf	3	160	147	active
Rhno1	1	30.2	36.3	inactive
Rhno1	2	115	97.8	inactive
Rhno1	3	95.4	112	inactive
Optc	1	62.9	52.6	inactive
Optc	2	63.8	76.6	inactive
Optc	3	55.3	70.3	inactive
Arcn1	1	13.5	10.3	inactive
Arcn1	2	36.5	32.3	inactive
Arcn1	3	59.6	78.7	inactive
Or4c126	1	73.3	46.9	inactive
Or4c126	2	146	59.5	active
Or4c126	3	79.8	98.1	inactive

5 successive entries from above, quoted:
gene	reagent no.	GFP, % of control	viability (ATP), % of control	call
Slc6a19	2	95	66.1	inactive
Slc6a19	3	97.5	98.5	inactive
Ctsc	1	108	125	inactive
Ctsc	2	115	71.7	inactive
Ctsc	3	63	42.6	inactive

More reagents follow:
gene	reagent no.	GFP, % of control	viability (ATP), % of control	call
Rell1	1	65.4	35.1	inactive
Rell1	2	34.5	25	inactive
Rell1	3	75.2	96.8	inactive
Rint1	1	101	95.9	inactive
Rint1	2	97	85.1	inactive
Rint1	3	52.1	33.8	inactive
Prl4a1	1	108	71.1	inactive
Prl4a1	2	41.3	54.8	inactive
Prl4a1	3	47.5	56.8	inactive
Hspa14	1	79	73.7	inactive
Hspa14	2	77.5	68.8	inactive
Hspa14	3	59.8	59.2	inactive
Uncx	1	65.8	86.8	inactive
Uncx	2	82.2	66.8	inactive
Uncx	3	79.5	71.2	inactive
Pabpc2	1	77	59.2	inactive
Pabpc2	2	83.4	62.7	inactive
Pabpc2	3	86.8	76.1	inactive
Lgals2	1	42.9	50	inactive
Lgals2	2	36.1	34.4	inactive
Lgals2	3	63.7	70	inactive
Cdca5	1	96.3	107	inactive
Cdca5	2	63.7	58.8	inactive
Cdca5	3	81.6	92.7	inactive
Tgfbr3	1	85.1	74.3	inactive
Tgfbr3	2	58.6	44.9	inactive
Tgfbr3	3	63	59.4	inactive
Polrmt	1	123	81.7	active
Polrmt	2	89.1	101	inactive
Csmd1	1	121	67.6	active
Csmd1	2	91.4	30	inactive
Csmd1	3	104	93	inactive
Or10ak16	1	47.7	49.9	inactive
Or10ak16	2	55.1	64.5	inactive
Or10ak16	3	95.3	79.4	inactive
Ugt1a7c	1	128	68.3	active
Ugt1a7c	2	72.8	77.7	inactive
Ugt1a7c	3	52.9	51.3	inactive
Zfp706	1	66.7	70.4	inactive
Zfp706	2	77.7	91.3	inactive
Zfp706	3	65.7	46.3	inactive
Qsox1	1	108	86.6	inactive
Qsox1	2	53.6	73.2	inactive
Qsox1	3	66.1	58.8	inactive
